Results as given in publication PMC6587807.
These are yes or no findings as the source states them, for the method shown. A result given as binding can be weak or reduced; the word gives no strength.

Sequences of proteins named here, by UniProt entry; tags and fusion partners are left off. A change or cut given only in a name is not applied to a line headed by its entry.
UniProt A0A1C9HJI3: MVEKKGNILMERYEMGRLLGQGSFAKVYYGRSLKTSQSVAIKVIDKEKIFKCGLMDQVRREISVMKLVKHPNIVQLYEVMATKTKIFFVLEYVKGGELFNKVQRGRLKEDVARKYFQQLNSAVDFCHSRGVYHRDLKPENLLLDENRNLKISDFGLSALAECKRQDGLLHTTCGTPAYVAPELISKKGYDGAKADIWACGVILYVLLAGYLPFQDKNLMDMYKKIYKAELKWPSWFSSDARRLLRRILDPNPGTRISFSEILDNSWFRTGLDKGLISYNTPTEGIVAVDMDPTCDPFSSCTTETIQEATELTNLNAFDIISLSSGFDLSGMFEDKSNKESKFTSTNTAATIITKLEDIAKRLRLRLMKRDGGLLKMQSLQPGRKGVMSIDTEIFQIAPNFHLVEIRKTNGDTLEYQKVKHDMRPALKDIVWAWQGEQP

Molecular target: TaNH2-GST (wheat (Triticum aestivum cv. Suwon11))
Experiment: pull-down; GST pull-down; equal amounts of GST-tagged TaNH2 proteins mixed with TaCIPK10-His, 4 °C, 2 h; Western blot with anti-His and anti-GST; both purified

TaCIPK10-His (from UniProt A0A1C9HJI3) (enzyme)
binding: binds
